# The supplement of paper PMC6658780
# Where a name gives a salt, the structure may show the parent alone. ± gives the standard deviation of the averaged measurements. The list shows a part of the results. This data set is noisy: repeats of one test often differ as much as different tests do.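 The A. baumannii clinical isolates were selected for resistance to the partner antibiotic; the screen seeks drugs that restore its effect. Background from coloured compounds is removed by subtracting the start-of-incubation reading.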
# Tested on: Acinetobacter baumannii WP-487
# Experiment: percent growth inhibition of drug + antibiotic vs DMSO control; higher = more growth inhibition
# Conditions: antibiotic (0.125x MIC): colistin; 7 µM
# Procedure: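 Prestwick drugs tested at 20 uM and 7 uM with an antibiotic at 0.125x MIC (16 mg/L when MIC >128 mg/L) in cation-adjusted Mueller-Hinton broth, 384-well plates, duplicate runs on different days. Percent growth inhibition was computed from OD600 (24 h minus 0 h) relative to DMSO-only wells. Drug + 0.1% DMSO (no antibiotic) wells are also given. Only hits (max corrected inhibition > mean + 3SD) are listed. A. baumannii: NCTC-13301 was used for MEM/CIP/GEN/TGC and WP-487 for colistin. Duplicates with colistin are strongly discordant (run 2 near 100% for most drugs).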
row,SMILES,percent growth inhibition [%]
1,COc1ccc(CCN2CCC(Nc3nc4ccccc4n3Cc3ccc(F)cc3)CC2)cc1 [Astemizole],10.8 ± 19
2,O=c1c2ccccc2[se]n1-c1ccccc1 [Ebselen],51.4 ± 55
3,C[C@]12CC[C@@H]3c4ccc(OC(=O)N(CCCl)CCCl)cc4CC[C@H]3[C@@H]1CC[C@@H]2O [Estramustine],53.7 ± 66
4,CC(C)c1c(CN(C)C(C)Cc2ccccc2)n(C)n(-c2ccccc2)c1=O (stereo not given) [Famprofazone],-3.84 ± 4.2
5,CN1[C@@H]2CC[C@H]1C[C@@H](OC1c3ccccc3CCc3ccccc31)C2 [Deptropine citrate],42 ± 59
6,OC(c1ccccc1)(c1ccccc1)C1CCNCC1 [Azacyclonol],-4.95 ± 8.7
7,CN[C@@H]1C[C@@H](c2ccc(Cl)c(Cl)c2)c2ccccc21 [Indatraline hydrochloride],13.9 ± 7.2
8,CN(C)C(=O)Oc1ccc[n+](C)c1 [Pyridostigmine iodide],47.9 ± 74
9,Fc1ccc(C(OCCN2CCN(CCCc3ccccc3)CC2)c2ccc(F)cc2)cc1,5.15 ± 6.6
10,c1ccc2c(c1)Nc1ccccc1S2 [Phenothiazine],5.54 ± 2.2
11,CCC(=O)O[C@H]1CC[C@H]2[C@@H]3CCC4=CC(=O)CC[C@]4(C)[C@H]3CC[C@]12C [Testosterone propionate],0.255 ± 6.3
12,Cc1cc(C(C#N)c2ccc(Cl)cc2)c(Cl)cc1NC(=O)c1cc(I)cc(I)c1O (stereo not given) [Closantel],52.5 ± 67
13,CC(Cc1ccccc1)NCCC(c1ccccc1)c1ccccc1 (stereo not given) [Prenylamine lactate],5.12 ± 14
14,O=c1[nH]c2ccccc2n1C1CCN(CCCC(c2ccc(F)cc2)c2ccc(F)cc2)CC1 [Pimozide],50.6 ± 56
15,CC(=O)O[C@H]1CC[C@@]2(C)C(=CC[C@@H]3[C@@H]2CC[C@]2(C)C(=O)CC[C@@H]32)C1 [Dehydroisoandosterone 3-acetate],-0.867 ± 5

# Same assay, conditions: antibiotic (0.125x MIC): colistin; 20 µM
row,SMILES,percent growth inhibition [%]
1,COc1ccc(CCN2CCC(Nc3nc4ccccc4n3Cc3ccc(F)cc3)CC2)cc1 [Astemizole],51.1 ± 69
2,O=c1c2ccccc2[se]n1-c1ccccc1 [Ebselen],51.7 ± 38
3,C[C@]12CC[C@@H]3c4ccc(OC(=O)N(CCCl)CCCl)cc4CC[C@H]3[C@@H]1CC[C@@H]2O [Estramustine],11.9 ± 2.1
4,CC(C)c1c(CN(C)C(C)Cc2ccccc2)n(C)n(-c2ccccc2)c1=O (stereo not given) [Famprofazone],48 ± 71
5,CN1[C@@H]2CC[C@H]1C[C@@H](OC1c3ccccc3CCc3ccccc31)C2 [Deptropine citrate],52.4 ± 67
6,OC(c1ccccc1)(c1ccccc1)C1CCNCC1 [Azacyclonol],40 ± 60
7,CN[C@@H]1C[C@@H](c2ccc(Cl)c(Cl)c2)c2ccccc21 [Indatraline hydrochloride],57 ± 61
8,CN(C)C(=O)Oc1ccc[n+](C)c1 [Pyridostigmine iodide],7.15 ± 15
9,Fc1ccc(C(OCCN2CCN(CCCc3ccccc3)CC2)c2ccc(F)cc2)cc1,57.7 ± 60
10,c1ccc2c(c1)Nc1ccccc1S2 [Phenothiazine],51.8 ± 51
11,CCC(=O)O[C@H]1CC[C@H]2[C@@H]3CCC4=CC(=O)CC[C@]4(C)[C@H]3CC[C@]12C [Testosterone propionate],46.8 ± 66
12,Cc1cc(C(C#N)c2ccc(Cl)cc2)c(Cl)cc1NC(=O)c1cc(I)cc(I)c1O (stereo not given) [Closantel],51.6 ± 55
13,CC(Cc1ccccc1)NCCC(c1ccccc1)c1ccccc1 (stereo not given) [Prenylamine lactate],53.4 ± 66
14,O=c1[nH]c2ccccc2n1C1CCN(CCCC(c2ccc(F)cc2)c2ccc(F)cc2)CC1 [Pimozide],59.1 ± 47
15,CC(=O)O[C@H]1CC[C@@]2(C)C(=CC[C@@H]3[C@@H]2CC[C@]2(C)C(=O)CC[C@@H]32)C1 [Dehydroisoandosterone 3-acetate],49.1 ± 72
